PubChem BioAssay AID504808 – Drosophila RNAi Screening Center | 2011
In all, the deposit lists about 21,000 reagents; shown is an unselected part of those that have a named target and a result. Of all reagents, 18 (0.084%) got an active call. 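Raw counts without plate normalisation, one of two replicates; the ratio scores behind the calls were not deposited.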 Unmarked entries are inactive. Names joined by + are all predicted targets of the reagent. The record does not give: the amount of reagent, the time to read-out.

Purpose: 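Genes whose loss lifts activity of an E2F-responsive reporter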 (primary screen)
System: Drosophila S2 cells
Knock-down reagent: long dsRNA against Drosophila genes
Detection: 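Dual luciferase plate measurements; E2F-specific signal taken as firefly over Renilla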
Scale: E2F firefly: higher = more E2F reporter activity; Renilla normaliser: higher = more normaliser reporter signal
Rule for the call: 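Called active if the normalised E2F reporter went up by over 50%; the cutoff is arbitrary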

The first 3 records, ahead of the listing:
E2F firefly, rep 1	Renilla normaliser, rep 1	gene	dsRNA
77175	3395	CG17010	DRSC02559
99582	4463	CG5421	DRSC02858
78799	6646	RpL3 (Ribosomal protein L3)	DRSC16834

The list itself, from the first entry:
E2F firefly, rep 1	Renilla normaliser, rep 1	gene	dsRNA
77175	3395	CG17010	DRSC02559
99582	4463	CG5421	DRSC02858
78799	6646	RpL3 (Ribosomal protein L3)	DRSC16834
1.46e5	6020	CG8326	DRSC20103
1.03e5	4607	Yip1d1 (Yip1 domain-containing 1)	DRSC02166
97403	5250	mAChR-C (muscarinic Acetylcholine Receptor, C-type)	DRSC17890
60190	6611	pps (protein partner of snf)	DRSC16057
1.39e5	6572	CG15831 (retired record)	DRSC20816
1.54e5	8090	hdly (hadley)	DRSC15849
1.33e5	6564	CG14566	DRSC11727
1.44e5	6903	l(1)G0020 (lethal (1) G0020)	DRSC18198
88311	4603	CG8834	DRSC07283
1.40e5	7505	CG14570	DRSC11731
1.51e5	4825	cutlet	DRSC00284
92765	3432	CG15020	DRSC08474
1.13e5	4910	CG15475	DRSC02486
1.35e5	4192	Pka-C3 (Protein kinase, cAMP-dependent, catalytic subunit 3)	DRSC09402
1.24e5	6355	Pka-C3 (Protein kinase, cAMP-dependent, catalytic subunit 3)	DRSC11254
1.47e5	5137	mtsh (mitoshell)	DRSC03070
90440	3766	form3 (formin 3)	DRSC10195
64475	3304	form3 (formin 3)	DRSC10297
95285	4059	form3 (formin 3)	DRSC11024
1.05e5	3628	ham (hamlet)	DRSC02070
96869	4065	ham (hamlet)	DRSC02512
97526	3896	ham (hamlet)	DRSC02513
1.12e5	6090	CheB98a (Chemosensory protein A 98a)	DRSC14882
1.12e5	3929	CG9849	DRSC04573
83476	3499	Akr1B (Aldo-keto reductase 1B)	DRSC10581
65001	3003	l(3)S110416 (retired record)	DRSC17094
89367	4574	indra	DRSC08558
83386	2886	ssp7 (short spindle 7)	DRSC18878
1.53e5	7239	CG14147	DRSC10149
80490	3194	CG31031 (retired record)	DRSC13964
1.20e5	4131	CG42380 + CG42379 + PIG-M + 1 more	DRSC03884
81852	3278	CG42380 + CG42379 + PIG-M + 1 more	DRSC04580
